Among the data in US5783681, “Androgen regulation with DNA sequences of rat probasin gene” (University of Manitoba) are binding signal, activity on this sequence (fold induction) and activity on this sequence (dpm/min/mg protein) values, retold here.

Construct, isoform or probe ends are uncertain for at least one entry. For part of these data: Where a protein sequence is shown, tags need not be part of it. For part of these data: Whether high values mean tight binding is not given here for every scale.

Data set [1] concerns the target T1, GST-AR2 (androgen receptor DNA-binding domain and hinge region) (Rattus norvegicus) (UniProt P15207).
T1 sequence (looked up, limits assumed): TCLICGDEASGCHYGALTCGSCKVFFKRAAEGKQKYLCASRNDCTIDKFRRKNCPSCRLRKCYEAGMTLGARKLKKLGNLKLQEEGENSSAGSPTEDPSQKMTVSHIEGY
As to the kind of experiment: footprint. The settings on record: purified recombinant protein, protein details: GST fusion, expressed in E. coli.

Data set [2] deals with T2, androgen receptor (AR) (Rattus norvegicus) (UniProt P15207).
T2 sequence (looked up, limits assumed): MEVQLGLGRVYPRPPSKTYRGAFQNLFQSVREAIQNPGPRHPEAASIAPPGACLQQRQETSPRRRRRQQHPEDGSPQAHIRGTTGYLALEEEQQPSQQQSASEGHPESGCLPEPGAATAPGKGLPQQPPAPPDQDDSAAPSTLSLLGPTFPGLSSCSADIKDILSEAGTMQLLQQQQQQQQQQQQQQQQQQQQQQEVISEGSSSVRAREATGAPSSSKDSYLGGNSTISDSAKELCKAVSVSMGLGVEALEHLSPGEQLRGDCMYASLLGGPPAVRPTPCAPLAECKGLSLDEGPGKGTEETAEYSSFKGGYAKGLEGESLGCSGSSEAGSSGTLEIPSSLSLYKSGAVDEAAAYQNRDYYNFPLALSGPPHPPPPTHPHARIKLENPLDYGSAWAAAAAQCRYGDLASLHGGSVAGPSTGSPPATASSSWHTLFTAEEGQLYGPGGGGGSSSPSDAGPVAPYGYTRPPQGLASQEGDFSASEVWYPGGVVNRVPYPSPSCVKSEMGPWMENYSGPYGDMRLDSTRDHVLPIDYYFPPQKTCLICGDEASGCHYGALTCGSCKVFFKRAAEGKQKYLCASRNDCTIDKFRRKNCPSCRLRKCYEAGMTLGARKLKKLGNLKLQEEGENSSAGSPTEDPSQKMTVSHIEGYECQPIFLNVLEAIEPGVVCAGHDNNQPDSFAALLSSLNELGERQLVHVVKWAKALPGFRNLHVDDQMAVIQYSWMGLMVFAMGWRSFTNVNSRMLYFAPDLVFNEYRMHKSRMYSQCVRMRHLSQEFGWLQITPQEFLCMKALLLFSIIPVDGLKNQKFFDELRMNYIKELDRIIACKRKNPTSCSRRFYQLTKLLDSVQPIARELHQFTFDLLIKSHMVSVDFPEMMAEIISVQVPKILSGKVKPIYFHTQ
As to the kind of experiment: activity in cells. The settings on record: PC-3, CAT reporter, DHT; protein in cells.

The target in data set [3] is T3, androgen receptor (hAR) wild type (Homo sapiens) (UniProt P10275).
T3 sequence (looked up, limits assumed): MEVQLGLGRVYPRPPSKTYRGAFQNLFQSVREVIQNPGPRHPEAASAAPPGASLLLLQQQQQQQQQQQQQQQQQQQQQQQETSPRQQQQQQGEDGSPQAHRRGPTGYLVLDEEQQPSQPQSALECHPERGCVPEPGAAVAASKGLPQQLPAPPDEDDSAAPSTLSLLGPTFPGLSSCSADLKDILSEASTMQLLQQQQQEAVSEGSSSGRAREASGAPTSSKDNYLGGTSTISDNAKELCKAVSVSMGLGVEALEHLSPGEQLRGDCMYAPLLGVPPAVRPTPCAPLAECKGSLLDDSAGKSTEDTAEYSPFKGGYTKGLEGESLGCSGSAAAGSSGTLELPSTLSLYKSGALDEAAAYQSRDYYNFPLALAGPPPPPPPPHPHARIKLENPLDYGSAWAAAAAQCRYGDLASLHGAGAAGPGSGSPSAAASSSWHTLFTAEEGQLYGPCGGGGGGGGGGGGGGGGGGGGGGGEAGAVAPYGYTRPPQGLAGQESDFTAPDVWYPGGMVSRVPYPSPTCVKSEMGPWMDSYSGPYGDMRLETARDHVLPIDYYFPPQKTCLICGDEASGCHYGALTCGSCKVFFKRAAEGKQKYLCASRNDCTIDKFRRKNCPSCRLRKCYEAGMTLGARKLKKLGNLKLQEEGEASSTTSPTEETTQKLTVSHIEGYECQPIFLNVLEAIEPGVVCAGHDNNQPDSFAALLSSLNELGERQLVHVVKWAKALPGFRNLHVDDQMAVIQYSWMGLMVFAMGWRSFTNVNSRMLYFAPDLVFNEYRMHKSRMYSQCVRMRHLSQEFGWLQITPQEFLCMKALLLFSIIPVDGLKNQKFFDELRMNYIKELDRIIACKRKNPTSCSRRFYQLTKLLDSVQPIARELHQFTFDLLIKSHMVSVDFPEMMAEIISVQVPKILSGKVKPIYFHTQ
Nature of the data set: activity in cells. The settings on record: 10 nM DHT, background 4.2.

Data set [4] deals with androgen receptor V865L (Homo sapiens) (UniProt P10275). Nature of the data set: activity in cells. Particulars: 10 nM DHT, background 4.2.
The target in data set [5] is T4, glucocorticoid receptor (GR) (Rattus norvegicus) (UniProt P06536).
T4 sequence (looked up, limits assumed): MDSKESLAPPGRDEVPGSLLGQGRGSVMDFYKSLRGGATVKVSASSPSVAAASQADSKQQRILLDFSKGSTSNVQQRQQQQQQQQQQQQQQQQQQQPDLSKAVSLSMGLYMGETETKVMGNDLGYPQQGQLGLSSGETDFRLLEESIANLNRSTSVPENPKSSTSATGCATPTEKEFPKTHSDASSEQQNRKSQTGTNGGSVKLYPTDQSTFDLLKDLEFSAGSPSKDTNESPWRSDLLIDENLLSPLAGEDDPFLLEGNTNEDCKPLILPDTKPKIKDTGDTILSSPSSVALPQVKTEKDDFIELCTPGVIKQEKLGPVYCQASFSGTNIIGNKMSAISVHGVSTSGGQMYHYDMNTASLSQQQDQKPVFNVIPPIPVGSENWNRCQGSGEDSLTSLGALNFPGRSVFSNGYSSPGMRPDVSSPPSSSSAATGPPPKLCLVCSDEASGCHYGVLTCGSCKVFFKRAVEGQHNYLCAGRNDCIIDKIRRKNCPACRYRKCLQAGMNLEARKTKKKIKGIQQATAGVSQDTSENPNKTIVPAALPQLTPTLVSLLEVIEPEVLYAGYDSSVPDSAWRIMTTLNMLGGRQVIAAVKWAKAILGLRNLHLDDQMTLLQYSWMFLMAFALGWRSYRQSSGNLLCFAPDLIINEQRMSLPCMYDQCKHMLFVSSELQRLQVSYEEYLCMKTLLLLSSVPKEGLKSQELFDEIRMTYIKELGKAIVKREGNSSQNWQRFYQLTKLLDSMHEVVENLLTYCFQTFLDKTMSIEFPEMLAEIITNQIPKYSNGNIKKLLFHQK
As to the kind of experiment: activity in cells. The settings on record: PC-3, CAT reporter, DEX; protein in cells.

In the case of “AAGCTTCCACAAGTGCATTTAGCCTCTCCAGTATTGCTGATGAATCCACAGTTCAGGTTCAATGGCGTTCAAAACTTGATCAAAAATGACCAGACTTTATATTCTTACACCAACATCTATCTGATTGGAGGAATGGATAATAGTCATCATGTTTAAACATCTACCATTCCAGTTAAGAAAATATGATAGCATCTTGTTCTTAGTCTTTTTCTTAATAGGGACATAAAGCCCACAAATAAAAATATGCCTGAAGAATGGGACAGGCATTGGGCATTGTCCATGCCTAGTAAAGT (double strand) [probasin -426 to -134]”, the binding signal in data set [1] (ARE-1 footprint, ARE-2 absent, variant of probasin -286 to +28) was 200 ng.
“TAGTCATCATGTTTAAACATCTACCATTCCAGTTAAGAAAATATGATAGCATCTTGTTCTTAGTCTTTTTCTTAATAGGGACATAAAGCCCACAAATAAAAATATGCCTGAAGAATGGGACAGGCATTGGGCATTGTCCATGCCTAGTAAAGTACTCCAAGAACCTATTTGTATACTAGATGACACAATGTCAATGTCTGTGTACAACTGCCAACTGGGATGCAAGACACTGCCCATGCCAATCATCCTGAAAAGCAGCTATAAAAAGCAGGAAGCTACTCTGCACCTTGTCAGTGAGGTCCAGATACCTACAG (double strand) [probasin -286 to +28]”: the binding signal in data set [1] (amount of AR giving footprint, ARE-1 60 ng and ARE-2 60 ng) came to 60 ng. Further, the activity on this sequence (fold induction) in data set [2] amounted to 42; in data set [5] it was 29. The activity on this sequence (dpm/min/mg protein) in data set [3] was 50; in data set [4] it was 49.
